Measurements: article PMC11574277
These are yes or no findings as the source states them, for the method shown. Binding seen in cells or lysates may run through a third protein. Binding calls can cover weak binding; strength is not graded here. Tags and fused reporters may be left off the sequences shown.

Target: T1, FLAG-ATG9A (3×FLAG-tagged ATG9A, on ATG9 vesicles) (UniProt Q7Z3C6)
T1 sequence: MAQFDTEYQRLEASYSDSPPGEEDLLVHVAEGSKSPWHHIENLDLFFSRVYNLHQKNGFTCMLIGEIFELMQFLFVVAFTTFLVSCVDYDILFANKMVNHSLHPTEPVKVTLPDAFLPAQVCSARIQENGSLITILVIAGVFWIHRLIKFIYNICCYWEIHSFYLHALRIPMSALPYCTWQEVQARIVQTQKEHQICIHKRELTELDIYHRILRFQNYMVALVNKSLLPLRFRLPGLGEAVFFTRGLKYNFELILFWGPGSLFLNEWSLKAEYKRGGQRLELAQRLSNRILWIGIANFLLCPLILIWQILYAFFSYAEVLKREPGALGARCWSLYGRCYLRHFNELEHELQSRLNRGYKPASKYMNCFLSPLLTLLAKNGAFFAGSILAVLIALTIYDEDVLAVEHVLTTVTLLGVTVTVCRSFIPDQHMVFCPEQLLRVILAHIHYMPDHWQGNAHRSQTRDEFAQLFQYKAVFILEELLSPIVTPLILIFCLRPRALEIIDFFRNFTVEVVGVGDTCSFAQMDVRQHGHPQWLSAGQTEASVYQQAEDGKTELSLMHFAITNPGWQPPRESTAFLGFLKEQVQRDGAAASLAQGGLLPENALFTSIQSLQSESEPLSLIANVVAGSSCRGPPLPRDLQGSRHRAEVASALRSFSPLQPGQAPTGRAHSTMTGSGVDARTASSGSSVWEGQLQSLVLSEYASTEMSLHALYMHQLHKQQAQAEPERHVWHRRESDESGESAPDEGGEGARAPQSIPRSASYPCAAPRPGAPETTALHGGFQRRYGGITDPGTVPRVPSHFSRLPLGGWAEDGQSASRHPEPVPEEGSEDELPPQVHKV
Assay: co-IP; organelle immunoprecipitation: ATG9 vesicles precipitated by FLAG M2 beads from Dounce homogenate in hypotonic buffer (10 mM HEPES pH 7.9, 1.5 mM MgCl2, 10 mM KCl, no detergent named), cells 60 min after CCCP; GFP blotted

For “GFP–OPTNΔUBAN (muGFP-tagged optineurin lacking the UBAN domain, aa 445–502)”, which binding is on record?
The binding was “binds”.
